A short description of the assay: qHTS Assay for Lipid Storage Modulators in Drosophila S3 Cells.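 As to cell number change: cells counted by Cell Tracker Red CMTPX staining in the red channel.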 The following applies: BODIPY lipid droplet fluorescence, 18-24 h; for cell number change: measured here: cell count max response, cells fed with added oleic acid. The procedure, abridged: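 Drosophila S3 cells loaded with oleic acid (400 uM, as added) and compounds at several concentrations; lipid droplets imaged by 488-nm laser-scanning cytometry, 500–530 nm intensity and object ratio to cell channel. Percent activity normalized to 20 uM Triacsin C.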
On the technique in general: Quantitative high-throughput screening tests each substance at several concentrations.

Setting [1] is: measured here: lipid fluorescence (Fed channel) AC50, cells fed with added oleic acid.
[2] abbreviates: measured here: cell number channel AC50, cells fed with added oleic acid.

What is called AC50 is the concentration at which the activity in the assay is half-maximal. Higher therefore signals activity only at high concentration.

The list shows a part of the results. The main result of the screen is listed elsewhere. These columns were measured beside it and carry no call. Compounds called inactive in the main read-out are mostly missing here. Words in brackets tell the shape of the fitted curve; partial curves, single points and poor fits give uncertain potencies.

As to `Nc1cccc2nc3ccccc3cc12`, the cell number change was -21.2%. Also, the AC50 under setting [1] was 16.4 µM [falling, single point].

As to `CN(C(=O)CSc1nnnn1-c1ccccc1)C1CCCCC1`, the cell number change was -61%. The AC50 under setting [2] was 4.61 µM [falling, full curve].

On to `CCOc1ccc(CNC(=O)CCc2cn(C)c3ccccc23)cc1OC`, for which the cell number change was -123%. Also, under setting [2], the AC50 is 32.6 µM [falling, partial curve, poor fit]. The AC50 under setting [1] is 29.1 µM [falling, partial curve].

`CN(Cc1ccc(Cl)s1)C(=O)CNC(=O)CNC(=O)c1ccc(Cl)cc1Cl`: the cell number change amounted to 25.8%. Moreover, under setting [1], the AC50 is 5.8 µM [rising, single point].

For `CCOC(=O)c1c(C)[nH]c(C)c1C(=O)COC(=O)c1ccc(S(=O)(=O)C(F)F)cc1`, the cell number change is -10.5%. The AC50 under setting [1] is 0.164 µM [rising, full curve, poor fit].

Regarding `c1ccc(CNc2nc(CN3CCOCC3)nc3scc(-c4ccccc4)c23)cc1`, the cell number change was -22.6%. Besides, under setting [1], the AC50 is 8.2 µM [falling, partial curve].

Regarding `O=C(Cn1cccc1)N1CCN(c2ccc(F)cc2)CC1`, the cell number change was -0.911%. Also, the AC50 under setting [1] is 4.11 µM [falling, full curve, poor fit].

With `O=C(CN1C2=NCCN2c2ccccc21)C12CC3CC(CC(C3)C1)C2`, the cell number change worked out at 49.5%. The AC50 under setting [2] was 23.1 µM [rising, single point].

With `CCCCC(c1nnnn1CC1CCCO1)N1CCN(c2cc(Cl)ccc2C)CC1` (stereo unspecified), the cell number change was determined as 4.2%. For the same molecule, the AC50 under setting [2] is 1.84 µM [rising, partial curve, poor fit]. Moreover, the AC50 under setting [1] was 16.4 µM [rising, single point].

For `Nc1c(Cl)cc(Cl)cc1C(=O)OCC(=O)N1CCCC1`, under setting [2], the AC50 is 2.06 µM [rising, partial curve].

In the case of `CCCCn1c(N)c(N(CC(C)C)C(=O)CCS(=O)(=O)c2ccc(C)cc2)c(=O)[nH]c1=O`, the cell number change was -1.2%.

For the molecule `O=C(O)C1CCCN1c1nc(-c2ccc(Cl)c(Cl)c2)cc(C(F)(F)F)n1` (stereo unspecified), the cell number change is -0.259%. In addition, the AC50 under setting [1] is 20.6 µM [rising, partial curve, poor fit].

Regarding `O=C(Nc1ccccc1C(=O)N1CCCC1)c1ccc(Cl)cc1Cl`, under setting [1], the AC50 is 5.17 µM [falling, single point].

Take `Cc1c(C)n(C)c2ccc(C(=O)Nc3cccc4ccccc34)cc12`: the cell number change is -15.2%. Under setting [1], the AC50 is 2.91 µM [rising, single point].

As for `COc1cc(/C=N/N2C(C)CCCC2C)cc(Br)c1O` (stereo unspecified), the cell number change was -0.812%. Also, the AC50 under setting [2] is 0.00461 µM [falling, full curve, poor fit].

As for `Cc1cc(C)nc(-n2nc(C)cc2NC(=O)CNCc2ccccc2)n1`, the cell number change is 52%. For the same molecule, the AC50 under setting [2] was 1.46 µM [rising, full curve]. Besides, under setting [1], the AC50 is 0.461 µM [rising, full curve].

With `CCOc1ccc2nc(N3CCCC(C(=O)NCCCN4C(C)CCCC4C)C3)sc2c1` (stereo unspecified), the cell number change was 16.2%. In addition, the AC50 under setting [1] was 0.13 µM [rising, full curve, poor fit].

As to `CN(C)CCCn1c(=S)[nH]c2ccccc2c1=O`, the cell number change was -21.7%. Further, the AC50 under setting [1] is 29.1 µM [falling, single point].

`CC(C)c1nc(NCc2ccccc2)c(C#N)c2c1CCCC2`: the cell number change is 41.4%. For the same molecule, under setting [2], the half-maximal activity concentration (AC50) is 4.11 µM [rising, full curve].

Take `CCN(c1ccc(NC(=O)CSc2nnc3nc(C)cc(C)n23)cc1)C(C)C`: the cell number change worked out at 7.6%. Under setting [1], the AC50 is 0.00461 µM [falling, full curve, poor fit].

With `CC(NC(=O)Cn1ncc(Cl)c(Cl)c1=O)C12CC3CC(CC(C3)C1)C2` (stereo unspecified), the cell number change is -35.6%. Also, under setting [2], the AC50 is 0.411 µM [falling, partial curve, poor fit]. The AC50 under setting [1] was 4.11 µM [falling, partial curve].

As for `O=C(/C=C/c1ccc([N+](=O)[O-])cc1)N(c1ccccn1)C1CCCCC1`, the cell number change was -55.5%. Further, the AC50 under setting [2] is 29.1 µM [falling, single point].

Take `COc1ccccc1NC(=O)c1cc(-c2ccc(C)o2)nc2ccccc12`: the cell number change was determined as 27.6%.

For `Cc1nc2[nH]c(=S)[nH]c2cc1Br`, the cell number change is -15.9%. In addition, under setting [1], the AC50 was 0.116 µM [falling, full curve, poor fit].

For the molecule `C=CCNCCOc1ccc(C(C)(C)c2ccccc2)cc1`, the cell number change was -33.3%. Moreover, the AC50 under setting [2] was 0.00517 µM [falling, full curve, poor fit]. The AC50 under setting [1] is 8.2 µM [falling, partial curve, poor fit].

As to `COc1ccc(-n2nnnc2SCC(=O)Nc2ccccc2N2CCOCC2)cc1OC`, the cell number change was -8.29%. The AC50 under setting [1] is 0.461 µM [falling, full curve, poor fit].

In the case of `O=C(CCCN1C(=O)/C(=C\c2cccs2)SC1=S)NNC(=O)c1cccnc1`, the cell number change is -57.8%. In addition, under setting [2], the AC50 is 25.9 µM [falling, partial curve, poor fit]. In addition, the AC50 under setting [1] is 14.6 µM [falling, partial curve].

With `O=C(Cn1ccc(NC(=O)OCc2ccccc2)nc1=O)NCCc1ccccn1`, the cell number change is 10.9%. In addition, under setting [1], the half-maximal activity concentration (AC50) was 0.116 µM [falling, single point].

`CCCOc1cccc(C2C(C(=O)c3cc4ccccc4o3)=C(O)C(=O)N2c2cc(C)on2)c1` (stereo unspecified): the cell number change turned out to be 35.7%. The AC50 under setting [2] was 29.1 µM [rising, single point]. Under setting [1], the AC50 was 6.51 µM [rising, full curve].

In the case of `Cc1ccc(S(=O)(=O)NC(CC(C)C)C(=O)NCc2ccco2)cc1` (stereo unspecified), the cell number change is 9.81%.

On to `COc1cc(CNC2CCCc3ccccc32)cc(OC)c1OC` (stereo unspecified), for which the cell number change is 8.89%. Moreover, the AC50 under setting [1] was 2.59 µM [falling, single point].

Consider `Cc1cc(OCC(=O)Nc2ccc(N3CCN(C)CC3)cc2)ccc1Cl`, for which the cell number change was -10.4%. Also, under setting [1], the AC50 was 0.259 µM [rising, full curve].

`Cc1cc(C)c2c(CC(=O)Nc3ccc(Cl)cn3)coc2c1`: the cell number change was -11.3%.

As to `Cc1cc(C(=O)NC2CC(C)(C)Cc3c2cnn3-c2cccc(F)c2)n(C)n1` (stereo unspecified), the cell number change was -14.9%. The AC50 under setting [1] was 0.058 µM [falling, full curve, poor fit].

For the molecule `O=C(Cn1cnc2ccccc2c1=O)NCCC(=O)Nc1ccc2c(c1)OCO2`, the cell number change was -88.7%. Also, the AC50 under setting [2] is 6.51 µM [falling, full curve].

As to `COc1ccc(NC(=O)C/C(C)=N/NC(=O)c2cnccn2)c(OC)c1`, the cell number change worked out at 5.88%. Besides, under setting [1], the AC50 was 29.1 µM [rising, single point].

Regarding `Cc1cc(=O)[nH]c(SCc2nc3ncccn3c2Br)n1`, the cell number change turned out to be 90.9%. Moreover, the AC50 under setting [2] was 20.6 µM [rising, single point]. Also, the AC50 under setting [1] is 29.1 µM [rising, single point].

Source of the values: PubChem BioAssay AID2685 (National Center for Advancing Translational Sciences (NCATS), 2010).
